This passage reports binding results from publication PMC6354426.

The chains behind the UniProt entries cited, without tags or fusion partners.
UniProt A0A9J7JS88: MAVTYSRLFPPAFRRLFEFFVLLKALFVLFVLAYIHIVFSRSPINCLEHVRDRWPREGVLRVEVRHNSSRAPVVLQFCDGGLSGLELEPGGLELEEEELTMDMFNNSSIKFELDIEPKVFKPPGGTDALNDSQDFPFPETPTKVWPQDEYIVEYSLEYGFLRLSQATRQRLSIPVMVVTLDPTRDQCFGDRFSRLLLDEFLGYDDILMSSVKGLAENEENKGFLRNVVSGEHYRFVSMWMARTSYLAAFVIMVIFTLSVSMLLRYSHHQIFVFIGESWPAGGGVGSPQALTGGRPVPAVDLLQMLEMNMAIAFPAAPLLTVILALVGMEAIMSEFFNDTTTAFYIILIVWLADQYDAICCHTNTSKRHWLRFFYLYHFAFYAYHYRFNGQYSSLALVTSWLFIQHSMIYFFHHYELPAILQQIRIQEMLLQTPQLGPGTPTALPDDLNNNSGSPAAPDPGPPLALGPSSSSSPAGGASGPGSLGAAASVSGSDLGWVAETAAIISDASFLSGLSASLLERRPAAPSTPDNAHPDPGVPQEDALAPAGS
UniProt A0A061IGS6: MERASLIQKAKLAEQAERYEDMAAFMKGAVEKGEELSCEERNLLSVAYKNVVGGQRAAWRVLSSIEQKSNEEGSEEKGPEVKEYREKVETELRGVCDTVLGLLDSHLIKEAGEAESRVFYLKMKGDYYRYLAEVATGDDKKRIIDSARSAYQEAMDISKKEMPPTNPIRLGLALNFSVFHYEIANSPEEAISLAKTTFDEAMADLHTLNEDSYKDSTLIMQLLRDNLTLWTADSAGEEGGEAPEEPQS

Results are given in words; binding and its absence hold for the method and conditions named. In cells and extracts the contact can be indirect. These calls come from enrichment with a bait or labelling near it, and not all partners need be listed. Tags and fused reporters may be left off the sequences shown.

The chains are these.
T1: adipocyte plasma membrane-associated protein APMAP1, Flag-tagged (human) (UniProt Q9HDC9)
T1 sequence: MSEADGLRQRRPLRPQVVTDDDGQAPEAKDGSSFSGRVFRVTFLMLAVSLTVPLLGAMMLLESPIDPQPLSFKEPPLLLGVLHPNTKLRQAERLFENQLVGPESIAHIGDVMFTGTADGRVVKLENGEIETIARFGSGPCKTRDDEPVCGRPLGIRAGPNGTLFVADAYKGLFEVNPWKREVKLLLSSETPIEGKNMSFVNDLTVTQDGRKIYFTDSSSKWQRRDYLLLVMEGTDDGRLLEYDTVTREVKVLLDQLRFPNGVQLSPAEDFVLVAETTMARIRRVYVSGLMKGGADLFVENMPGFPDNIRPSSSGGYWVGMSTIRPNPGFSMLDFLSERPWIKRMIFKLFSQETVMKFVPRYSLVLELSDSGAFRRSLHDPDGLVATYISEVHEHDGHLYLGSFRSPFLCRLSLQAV

B1: lysosome-associated membrane glycoprotein 1 (protein, UniProt P49129 22-407)
chain: ASALFVVKDSNGTACIMANFSASFFTIYETGHGSKNSTFELPSSAEVLNSNSSCGRENVSEPILTIAFGSGYLLTLNFTRNATRYSVQDMYFAYNLSDTQHFLNASNKGIHSVDSSTDIKADINKTYRCLSAIQVHMGNVTVTLSDATIQAYLLNSNFSKEETRCTQDGPSPTTVPPSPSPPLVPTNPTVIKYNVTGENGTCLLASMALQMNITYMKKDNMTVTRALNISPNDTASGSCSPHVVTLTVESKNSILDLKFGMNGSSSLFFLQEVRLNMTLPDANVSSLMASNQSLRALQATVGNSYKCNTEEHIFVTKEFSLNVFSVQVQAFKVESDRFGSVEECMQDGNNMLIPIAVGGALAGLVLIVLIAYLIGRKRSHAGYQTI

The target of this assay is T1, adipocyte plasma membrane-associated protein APMAP1, Flag-tagged (human). Kind of assay: affinity purification with mass spectrometry; bicarbonate-washed membranes of CHO-APMAP1-Flag cells solubilised in 1% CHAPSO, diluted in 0.1% digitonin-TBS, bound to M2 anti-Flag affinity resin overnight, eluted with 0.2 mg/ml Flag peptides; Superdex 200 SEC in 0.1% digitonin-TBS; BN-PAGE bands CP1 to CP8 excised, in-gel trypsin digestion, LC-MS/MS; two independent experiments.
For “serpinB3 (Chinese hamster (endogenous in CHO))”, the binding entry is listed as “binds”. Turning to “membralin (from UniProt A0A9J7JS88 1-548)”, the binding entry is reported as “binds”. In the case of “calnexin (Chinese hamster (endogenous in CHO))” it was “binds”; in that of “cation-independent mannose 6-phosphate receptor (Chinese hamster (endogenous in CHO))”, “binds”; in that of “arginase-1 (Chinese hamster (endogenous in CHO)) (enzyme)”, “binds”. For the molecule “reticulon-4 (Chinese hamster (endogenous in CHO))”, the binding result was “binds”.

As to “nicastrin (Chinese hamster (endogenous in CHO))”, the binding result is given as “binds”. On to “fetuin-A (Chinese hamster (endogenous in CHO))”, for which the binding result is given as “binds”. In the case of “14-3-3 protein sigma (from UniProt A0A061IGS6 1-248)”, the binding entry is “binds”. Consider “clusterin (Chinese hamster (endogenous in CHO))”, for which the binding result was “binds”. “prostaglandin F2 receptor negative regulator (Chinese hamster (endogenous in CHO))”: the binding entry was “binds”.

For the molecule B1, the binding entry is “binds”.
